{"source": "paper PMC11157272", "about": "“Fructose-1-kinase has pleiotropic roles in Escherichia coli” (The Journal of Biological Chemistry, 2023)", "key": {"[1]": {"test_system": "Cra, WT, constitutively over-expressed in crude lysate + FruK, endogenous", "test": "pull-down", "details": "cells grown with 20 mM fructose; 5' biotin; protein in a lysate after overexpression; label: biotin"}, "[2]": {"molecular_target": "T1, Cra, WT, constitutively over-expressed in crude lysate (Escherichia coli (gene from strain 3.300)) (UniProt P0ACP1)", "T1 sequence (looked up)": "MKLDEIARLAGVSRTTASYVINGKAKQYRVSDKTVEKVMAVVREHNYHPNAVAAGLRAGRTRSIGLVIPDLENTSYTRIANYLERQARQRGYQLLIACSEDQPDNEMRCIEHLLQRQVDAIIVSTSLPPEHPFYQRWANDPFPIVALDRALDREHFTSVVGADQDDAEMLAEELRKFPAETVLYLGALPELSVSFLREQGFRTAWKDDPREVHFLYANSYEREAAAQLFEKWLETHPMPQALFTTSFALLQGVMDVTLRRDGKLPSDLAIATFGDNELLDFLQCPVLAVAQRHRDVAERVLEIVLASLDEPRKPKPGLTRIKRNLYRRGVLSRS", "test": "pull-down", "details": "no fructose, no FruK detected; 5' biotin; protein in a lysate after overexpression; residues 1-334; label: biotin"}, "[3]": {"molecular_target": "T2, Cra (FruR), WT (Escherichia coli (gene from strain 3.300)) (UniProt P0ACP1)", "T2 sequence (looked up)": "T1 sequence (looked up)", "test": "AFM", "details": "Cra alone, often kinks DNA, some DNAs with two dimers; recombinant protein; residues 1-334"}, "[4]": {"test_system": "Pyruvate kinase (PYK) (Escherichia coli)", "test": "BLI", "details": "PYK without Cra; 5' biotin; BLI: 50 mM Hepes, 100 mM KCl, 0.1 mM EDTA, 10 mM MgCl2, 0.3 mM DTT, 0.1 mg/mL BSA, pH 7.0, about room temperature; concentrations as dimer; recombinant protein; label: biotin"}}, "note": "For some of these results: Where a protein sequence is shown, tags need not be part of it. For some of these results: For at least one entry, the source does not settle the construct or the ends of the probe. For some of these results: No signal at the amounts used counts as a negative. For some of these results: Where cells or extracts were used, other partners may take part."}
{"sequence": "AATGCCTGCATATGGCAGCTTGAAGCTGAAACGTTTCATTTTGCAGCGATCGTTAC (double strand) [Ocra]", "values": [{"measurement": "binding result", "setting": "[1]", "value": "binds"}, {"measurement": "binding result", "setting": "[2]", "value": "binds"}]}
{"sequence": "ATAAGCTTGCTGACGCTGCTGAAATGAAATTGCTGATAACGGATTTTCCCATCAGCAATTAGGAAAAATGGCAAAAAATTGTGCAGCACATCAAACTTTTGCTCATAACTTTACGGCTTTCCTTGCGTGCTGAAACAGAAGTATTATGCTTTCTTGAAACGTTTCAGCGCGATCTTGTCTTTAACCCTAAGCCAGGTTGGCGCTTTTTTTCTCATAGAGGCTGAATCGTTTCAATTCAGCAAGAGAGGAGAACTATGTTCCAGTTATCCGTACAGGACATCCATCCGGGCGAAAAGGCCGGAGACAAAGAAGAGGCGATTCGCGAATTCAT (double strand) [fruBKA promoter 331 bp (fruBdistal + fruBproximal)]", "values": [{"measurement": "binding result", "setting": "[3]", "value": "binds"}]}
{"sequence": "ATGCATGTTGTGTGGTTCTTGAAACGTTTCAGCTCACACAGGTCC (double strand) [fruBproximal]", "values": [{"measurement": "binding result", "setting": "[4]", "value": "no binding"}]}
